# Measurements reported in the supplement of paper PMC4635364.
# Counter-ions that a name gives are not always drawn. Some of the results follow. Single values are uncertain here, since repeats match poorly.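 Cells: ReNCell VM human fetal ventral-midbrain neural progenitors, differentiated mitogen-free. Blinded raters compared doublecortin-stained (early neurons) or tyrosine hydroxylase-stained (dopaminergic neurons) images with untreated wells, where 0 means no change. After repeats and both raters were averaged, compounds scoring 2 or above became hits for retesting.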
# Legend:
# ReNCell VM [1] = assay: neuronal differentiation score (DCX+ cell fraction vs untreated, manual image score) (score (-3 to 3)); higher = more neuronal differentiation; details: 2 uM, 2 weeks
# ReNCell VM [2] = assay: dopaminergic neuron differentiation score (TH+ cell fraction vs untreated, manual image score) (score (0 to 3)); higher = more TH+ dopaminergic neuron differentiation; details: 2 uM, 4 weeks, BDNF 10 ng/ml + GDNF 10 ng/ml
smiles,measurement,setting,value
Cc1ccc(C[N+](C)(C)C)o1 [5-Methylfurmethiodide],neuronal differentiation score,ReNCell VM [1]; library: Tocriscreen,inactive: 0
same,dopaminergic neuron differentiation score,ReNCell VM [2]; library: Tocriscreen,inactive: 0
CC1(C)C(O)CC(O)C2(C)C1CC(O)C1(C)C2CCC2(C)C(c3ccoc3)CC3OC321 (stereo not given) [havanensin],neuronal differentiation score,ReNCell VM [1]; library: Natural,inactive: 0
same,dopaminergic neuron differentiation score,ReNCell VM [2]; library: Natural,inactive: 0
O=C(O)c1nn(Cc2ccc(Cl)cc2Cl)c2ccccc12,neuronal differentiation score,ReNCell VM [1]; library: Spectrum,inactive: 0
same,dopaminergic neuron differentiation score,ReNCell VM [2]; library: Spectrum,inactive: 0
Cc1cc(C(C#N)c2ccc(Cl)cc2)c(Cl)cc1NC(=O)c1cc(I)cc(I)c1O (stereo not given),neuronal differentiation score,ReNCell VM [1]; library: Spectrum,inactive: 0
same,dopaminergic neuron differentiation score,ReNCell VM [2]; library: Spectrum,inactive: 0
COC(=O)[C@@H](N)CCCNC(=N)N[N+](=O)[O-] [NG-Nitro-L-arginine methyl ester hydrochloride],neuronal differentiation score,ReNCell VM [1]; library: LOPAC,inactive: 0
same,dopaminergic neuron differentiation score,ReNCell VM [2]; library: LOPAC,inactive: 0
CN1C2CC(=O)CC1C(O)C2 (stereo not given) [6-Hydroxytropinone],neuronal differentiation score,ReNCell VM [1]; library: Phytochemical,inactive: 0
same,dopaminergic neuron differentiation score,ReNCell VM [2]; library: Phytochemical,inactive: 0
CCC(C)C1O[C@]2(C=C[C@@H]1C)C[C@@H]1CC(C/C=C(\C)[C@@H](OC3C[C@H](OC)[C@@H](OC4C[C@H](OC)[C@@H](O)[C@H](C)O4)[C@H](C)O3)[C@@H](C)/C=C/C=C3\COC4[C@H](O)C(C)=CC(C(=O)O1)[C@]34O)O2 (stereo not given in full) [Avermectin B1a],neuronal differentiation score,ReNCell VM [1]; library: Prestwick,inactive: 0
same,dopaminergic neuron differentiation score,ReNCell VM [2]; library: Prestwick,inactive: 1
CN1[C@@H]2CCC[C@H]1CC(=O)C2 [Pseudopelletierine hydrochloride],neuronal differentiation score,ReNCell VM [1]; library: Phytochemical,inactive: 0
same,dopaminergic neuron differentiation score,ReNCell VM [2]; library: Phytochemical,inactive: 0
CCN(C)C(=O)Oc1cccc([C@H](C)N(C)C)c1,neuronal differentiation score,ReNCell VM [1]; library: Spectrum,inactive: 0
same,dopaminergic neuron differentiation score,ReNCell VM [2]; library: Spectrum,inactive: 0
O=C[C@H](Cl)[C@@H](O)[C@H](O)[C@H](O)CO [2-Chloro-2-deoxy-D-glucose],neuronal differentiation score,ReNCell VM [1]; library: LOPAC,inactive: 0
same,dopaminergic neuron differentiation score,ReNCell VM [2]; library: LOPAC,inactive: 0

# For convenience, some entries already given.
smiles,measurement,setting,value
Cc1ccc(C[N+](C)(C)C)o1 [5-Methylfurmethiodide],neuronal differentiation score,ReNCell VM [1]; library: Tocriscreen,inactive: 0
same,dopaminergic neuron differentiation score,ReNCell VM [2]; library: Tocriscreen,inactive: 0
